Results taken from article PMC9282857.
No constants are given. Whether binding was seen depends on the method and setting. For some assays here: In cells and extracts the contact can be indirect. For some assays here: A result given as binding can be weak or reduced; the word gives no strength. For some assays here: Where a sequence is shown, tags or fusion partners need not be part of it.

By UniProt entry, the sequences of proteins in these tests, tags left out. Where a name states a change or a piece, a line headed by the entry shows the natural chain unless it says otherwise. Residues count along the entry.
UniProt P39940, residues 224-809: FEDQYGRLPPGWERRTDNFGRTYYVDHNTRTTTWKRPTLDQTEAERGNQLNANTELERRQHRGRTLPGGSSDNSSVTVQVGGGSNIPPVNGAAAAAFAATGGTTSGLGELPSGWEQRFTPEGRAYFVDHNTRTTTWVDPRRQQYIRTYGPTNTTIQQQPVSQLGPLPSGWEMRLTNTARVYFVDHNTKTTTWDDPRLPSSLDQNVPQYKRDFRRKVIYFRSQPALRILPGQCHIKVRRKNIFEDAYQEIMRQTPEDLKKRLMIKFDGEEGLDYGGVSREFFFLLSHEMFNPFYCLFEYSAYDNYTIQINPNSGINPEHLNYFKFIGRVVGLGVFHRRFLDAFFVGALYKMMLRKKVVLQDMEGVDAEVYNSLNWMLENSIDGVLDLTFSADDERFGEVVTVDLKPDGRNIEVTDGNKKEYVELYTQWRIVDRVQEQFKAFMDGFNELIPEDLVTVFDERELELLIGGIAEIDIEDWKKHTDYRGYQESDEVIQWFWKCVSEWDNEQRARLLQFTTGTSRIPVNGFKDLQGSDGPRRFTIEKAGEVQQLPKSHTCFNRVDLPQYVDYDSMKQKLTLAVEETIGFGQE
UniProt P53244: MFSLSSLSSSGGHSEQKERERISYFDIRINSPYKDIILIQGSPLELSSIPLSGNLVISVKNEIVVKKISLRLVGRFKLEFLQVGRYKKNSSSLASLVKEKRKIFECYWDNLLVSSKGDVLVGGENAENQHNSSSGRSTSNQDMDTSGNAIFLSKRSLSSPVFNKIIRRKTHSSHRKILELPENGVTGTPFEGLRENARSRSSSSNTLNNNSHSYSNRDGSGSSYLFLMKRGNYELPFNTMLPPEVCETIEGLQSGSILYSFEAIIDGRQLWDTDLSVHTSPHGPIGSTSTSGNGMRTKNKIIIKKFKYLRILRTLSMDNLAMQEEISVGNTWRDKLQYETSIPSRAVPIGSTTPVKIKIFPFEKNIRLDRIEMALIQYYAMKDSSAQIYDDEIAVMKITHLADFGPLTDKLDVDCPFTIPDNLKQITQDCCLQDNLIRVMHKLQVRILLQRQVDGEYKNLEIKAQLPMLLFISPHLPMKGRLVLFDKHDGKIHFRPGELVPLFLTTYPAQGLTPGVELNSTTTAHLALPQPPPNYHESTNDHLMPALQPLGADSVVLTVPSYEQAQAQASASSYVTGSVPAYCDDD

Tests used:
[1] = molecular target: Rsp5 WW1-HECT domain (224-809) (S. cerevisiae) (UniProt P39940); test: ITC; Affinity-ITC calorimeter, 25°C; 20 mM Tris-HCl pH 7.5, 150 mM NaCl, 1 mM DTT; independent binding model; both purified
Mup1-GFP (S. cerevisiae) = molecular target: T1, Mup1-GFP (S. cerevisiae) (UniProt P50276); test: co-IP; yeast lysate in IP buffer with 1% Triton X-100; GFP-tagged cargo bound to GFP-nanotrap resin 2 hr at 4°C; ART protein detected by blot
T1 sequence: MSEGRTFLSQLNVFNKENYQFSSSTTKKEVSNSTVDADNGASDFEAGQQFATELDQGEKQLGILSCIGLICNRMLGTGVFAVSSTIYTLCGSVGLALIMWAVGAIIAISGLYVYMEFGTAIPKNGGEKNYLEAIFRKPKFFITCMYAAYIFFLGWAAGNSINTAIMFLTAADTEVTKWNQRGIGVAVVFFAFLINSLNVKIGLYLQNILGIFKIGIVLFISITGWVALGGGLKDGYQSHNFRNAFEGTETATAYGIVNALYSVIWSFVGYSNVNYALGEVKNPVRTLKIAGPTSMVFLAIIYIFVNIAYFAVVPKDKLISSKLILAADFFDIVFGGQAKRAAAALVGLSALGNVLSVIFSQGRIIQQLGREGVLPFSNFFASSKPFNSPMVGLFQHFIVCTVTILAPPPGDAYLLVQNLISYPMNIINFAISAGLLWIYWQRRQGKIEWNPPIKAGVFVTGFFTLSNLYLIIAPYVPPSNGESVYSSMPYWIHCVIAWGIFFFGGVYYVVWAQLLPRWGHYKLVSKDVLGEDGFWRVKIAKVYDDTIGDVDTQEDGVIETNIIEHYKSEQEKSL

binding [1] | binding (Mup1-GFP (S. cerevisiae)) | Substance
no binding | – | Art5 PY motif mutant (PY motifs containing region) (from UniProt P53244) (domain or fragment)
– | binds | art1^K486R (S. cerevisiae)
